The other results are listed elsewhere or left out. These are further read-outs of the screen, such as a control signal, another cell line or another target. No call is given for them. Most of these compounds were active or inconclusive in the main read-out, so they are no random draw. Words in brackets tell the shape of the fitted curve; partial curves, single points and poor fits give uncertain potencies.

A short description of this test: qHTS Assay to Find Inhibitors of Chronic Active B-Cell Receptor Signaling. Particulars: ABC-DLBCL IkBa-CBG/CBR reporter, luminescence ratio (green luciferase fused to IkBa over red control in TMD8 lymphoma cells), 4 h. In outline: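 Doxycycline induced both beetle luciferases in TMD8 lymphoma cells; IKK-driven degradation limits the IkappaBalpha-fused green signal, while red luminescence normalises for cell number and nonspecific effects. Compounds tested up to 46 uM, 4 hrs.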
Background: Quantitative high-throughput screening tests each substance at several concentrations.

Setting [1] is: measured here: CBR red luminescence, cell number.
The mark [2] stands for this setting: measured here: IkBa-CBG green luminescence.

The AC50 is the concentration at which the activity in the assay is half-maximal. With `COC(=O)CN(n1cnnc1)S(=O)(=O)c1ccccc1`, the AC50 reads like this: under setting [1], 35.5 µM [rising, single point]; under setting [2], 35.5 µM [falling, partial curve, poor fit]. For the compound `C#CCN1C(=O)C(O)(CC(=O)/C=C/c2ccco2)c2ccccc21` (stereo unspecified), the AC50 under setting [1] is 8.91 µM [falling, partial curve].

`CCn1c2c(c3cc(OCC(C)C)ccc31)CCCC2=O`: the concentration at half-maximal activity (AC50) under setting [1] is 20.6 µM [rising, partial curve, poor fit]. In the case of `CCOC(=O)N1CCN(S(=O)(=O)c2cccc3cccnc23)CC1`, the AC50 under setting [1] is 7.94 µM [rising, partial curve, poor fit]. As for `COc1cccc(CNc2ccc3[nH]c(=O)[nH]c3c2)c1OCc1ccccc1Cl`, the half-maximal activity concentration (AC50) under setting [1] was 22.4 µM [falling, single point]. The same measure, in the same setting: with `CC(=O)Nc1nnc(-c2ccc(Cl)s2)o1` the figure was 3.26 µM [rising, full curve, poor fit]; with `COc1ccc(CNc2nc3ccccc3n2Cc2ccc(C)cc2)cc1OC`, 29.1 µM [falling, single point]. Same read-out and setting: with `CSc1ccccc1NC(=O)COC(=O)CSc1ccc(C)cc1` the figure was 29.1 µM [falling, single point]; with `CCCOc1ccc(C(=O)NC(=S)N2CCN(c3cc4c(cc3F)c(=O)c(C(=O)O)cn4CC)CC2)cc1`, 0.447 µM [rising, full curve, poor fit]; with `CCC(=O)NCC(=O)OCC(=O)c1ccccc1`, 29.1 µM [rising, single point]. In the case of `COc1ccccc1C(=O)NC(CCSC)C(=O)OC(C)C(N)=O` (stereo unspecified), the AC50 under setting [1] was 31.6 µM [rising, single point]. Still for that read-out and setting: with `CC1CCN(C(=O)CN(C2CCCCC2)S(C)(=O)=O)CC1` the figure was 6.51 µM [rising, single point]; with `COc1ccc(/C(C)=N/N2C(=O)c3ccccc3NC2c2ccc(O)c(OC)c2)cc1` (stereo unspecified), 7.94 µM [falling, partial curve]. As to `CC(C)(C)C(=O)Nc1ccc(S(=O)(=O)N2CCC(c3nc4ccccc4[nH]3)CC2)cc1`, under setting [2], the concentration at half-maximal activity (AC50) was 3.26 µM [falling, partial curve, poor fit]. For the compound `Cc1ccc(-c2nnc(SCC(=O)c3ccc(Cl)cc3)n2-c2ccccc2)cc1`, under setting [1], the AC50 is 5.62 µM [rising, single point]. Still for that read-out and setting: for `COc1ccc(-c2noc(CCCC(=O)Nc3ccc(C(N)=O)cc3)n2)cc1` the value was 11.2 µM [falling, partial curve]; for `O=c1[nH]c2ccccc2n1Cc1ccc(Cl)cc1`, 20.6 µM [rising, single point]; for `CC(C)(C)SCCNC(=O)/C=C/c1cccc([N+](=O)[O-])c1`, 9.2 µM [rising, partial curve, poor fit].

As for `COc1ccc(Cn2cccc(NC(=O)Nc3ccc(C#N)cc3)c2=O)cc1`, under setting [1], the AC50 is 12.6 µM [rising, single point]. `Cc1ccccc1-n1c(SCC(=O)N/N=C/c2ccccc2OCC(=O)O)nc2ccccc2c1=O`: the AC50 under setting [1] is 35.5 µM [falling, partial curve, poor fit].

As for `O=C(/C=C1\SC(=O)NC1=O)Nc1ccc(F)cc1`, under setting [1], the AC50 is 35.5 µM [falling, single point]. On the same count and under the same terms, with `CCN(CC)S(=O)(=O)c1ccc(C(=O)N2CCN(C(=O)c3ccco3)CC2)cc1` the figure was 1.03 µM [rising, full curve, poor fit]; with `CCNC(=S)NS(=O)(=O)c1ccc(Cl)cc1`, 4.11 µM [rising, partial curve, poor fit]; with `O=C1NC(=O)C(Cc2c[nH]c3ccccc23)N1` (stereo unspecified), 0.0891 µM [rising, full curve, poor fit]. Take `CCOc1ccccc1NC(=O)Cn1nnc(C(=O)NCc2ccco2)c1N`: the half-maximal activity concentration (AC50) under setting [1] was 12.6 µM [rising, partial curve] and the AC50 under setting [2] was 3.16 µM [falling, partial curve]. Consider `COC(=O)c1ccccc1NC(=S)NC(=O)c1ccc(C)cc1`, for which, under setting [1], the AC50 is 7.31 µM [falling, partial curve]. Still for that read-out and setting: for `CC(=O)N1CCN(C(=O)c2cc3ccccc3o2)CC1` the value was 20 µM [rising, partial curve, poor fit]; for `CC(C)(C)c1ccc(C(=O)NCCc2ccccc2)cc1`, 2 µM [rising, partial curve, poor fit]. With `COC(=O)c1c(N2C(=O)Nc3ccccc3N2O)sc2c1CCCC2`, the AC50 under setting [1] was 29.1 µM [falling, single point] and the AC50 under setting [2] is 25.9 µM [rising, partial curve, poor fit]. Regarding `Cc1cc(C)cc(NC(=O)CSCc2cnn(-c3ccccc3)c2-n2cccc2)c1`, the AC50 reads like this: under setting [1], 3.26 µM [rising, partial curve]; under setting [2], 5.17 µM [falling, partial curve, poor fit]. In the case of `COc1ccc(C2CC(c3ccccc3)=NN2C(=O)COC(=O)c2cccc(O)c2)cc1` (stereo unspecified), under setting [1], the AC50 is 14.6 µM [falling, partial curve, poor fit].

Consider `COc1ccccc1CCCNC(=O)C1CCC(=O)N(CCc2ccc(Cl)cc2)C1` (stereo unspecified), for which the concentration at half-maximal activity (AC50) under setting [1] is 35.5 µM [falling, single point]. On to `CCc1ccc(OCC(=O)N(Cc2ccccc2)C2CCS(=O)(=O)C2)cc1` (stereo unspecified), for which the AC50 under setting [1] is 6.31 µM [falling, single point].

Regarding `Cc1ccc(/C=C2\SC(N3CCN(C(c4ccccc4)c4ccccc4)CC3)=NC2=O)o1`, the AC50 under setting [1] is 29.1 µM [falling, single point]. `COc1ccc(CCNS(=O)(=O)c2cn(C)c(=O)n(C)c2=O)cc1OC`: the AC50 under setting [1] is 18.4 µM [rising, partial curve, poor fit]. Regarding `CN1CCc2c(sc(NC(=O)c3cc4cc([N+](=O)[O-])ccc4s3)c2C(N)=O)C1`, the AC50 is 10 µM [falling, partial curve, poor fit] under setting [1] and 10 µM [rising, partial curve, poor fit] under setting [2]. For the compound `Brc1ccc(OCc2cn3ccccc3n2)cc1`, the AC50 under setting [1] is 5.01 µM [falling, partial curve, poor fit].

Turning to `O=C(/C=C/c1cccc(F)c1)NNC(=O)c1ccncc1`, under setting [1], the AC50 was 29.1 µM [falling, single point]. The same measure, in the same setting: with `O=C(NCc1cccnc1)c1nc(-c2ccccc2)n(-c2ccccc2)n1` the figure was 11.2 µM [falling, single point]; with `CC(C)N(C(=O)[C@H]1C[C@H](CC(=O)NCCCn2ccnc2)C(=O)N2CCc3c([nH]c4cc(-c5ccco5)ccc34)[C@]12C)C(C)C`, 32.6 µM [rising, partial curve, poor fit].

Regarding `O=C(O)Cc1sc(-c2ccccc2Cl)nc1-c1ccccc1`, the AC50 under setting [1] is 22.4 µM [falling, partial curve, poor fit]. On the same count and under the same terms, with `CCOC(=O)c1cnc(NCc2ccccc2)nc1C` the figure was 20.6 µM [falling, partial curve]. Still for that read-out and setting: with `COc1ccc(CCNc2nc(Cl)nc(NC(C)(C)CO)n2)cc1OC` the figure was 3.55 µM [rising, partial curve, poor fit]. Take `CC1CN(S(=O)(=O)c2ccccc2)CC(C)O1` (stereo unspecified): the AC50 under setting [1] was 23.1 µM [falling, single point]. On the same count and under the same terms, for `COc1ccc(NC(=O)COC(=O)[C@@H]2CCCN2C(=O)c2cccs2)cc1` the value was 6.51 µM [rising, single point]; for `Cc1nn(-c2ccccc2)c(Cl)c1C(=O)NNC(=O)c1ccccc1O`, 29.1 µM [falling, single point].

For the compound `CC(C)C(=O)Nc1ccc2c(c1)Cc1cc(NC(=O)C(C)C)ccc1-2`, under setting [1], the AC50 is 8.91 µM [rising, partial curve]. For the compound `Cc1ccc(-n2nc(C)c3c2OC(N)=C(C#N)C3c2ccoc2)cc1` (stereo unspecified), the AC50 under setting [1] was 11.2 µM [falling, partial curve, poor fit]. Still for that read-out and setting: for `Cc1cnc(NC(=O)CN2CCN(c3ccccn3)CC2)s1` the value was 10 µM [falling, partial curve, poor fit]; for `O=C(c1ccccc1)N1CCN(c2n[nH]c(=O)[nH]c2=O)CC1`, 2.82 µM [falling, partial curve, poor fit]. The same measure, in the same setting: with `Cc1cccc(NC(=O)COc2ccccc2C)n1` the figure was 0.116 µM [rising, full curve, poor fit]. Same read-out and setting: for `COc1ccc2[nH]c3c(c2c1)CCN1C(=O)C(CC(=O)NCCC2=CCCCC2)C[C@H](C(=O)N2CCCCC2)[C@@]31CCc1ccccc1` (stereo partly specified) the value was 29.1 µM [rising, single point]. For the compound `O=C(Cc1ccccc1)N1CCC(c2nc3ccccc3[nH]2)CC1`, the AC50 under setting [1] was 29.1 µM [rising, partial curve, poor fit].

Regarding `COc1cccc(C(=O)N2CCN(C(=O)c3cccc4ccccc34)CC2)c1OC`, under setting [1], the AC50 is 14.1 µM [rising, partial curve, poor fit].

As to `CCCCCc1ccc(OCCCC[n+]2ccccc2)c(CCCCC)c1`, under setting [1], the AC50 was 20 µM [falling, single point]. Consider `COc1ccc(NC(=O)COC(=O)Cn2cnc3ccccc3c2=O)cc1OC`, for which the AC50 under setting [1] is 3.55 µM [rising, partial curve, poor fit]. On to `O=c1oc2ccccc2nc1/C=C(\O)c1ccccc1`, for which, under setting [1], the concentration at half-maximal activity (AC50) was 12.6 µM [falling, partial curve, poor fit]. Same read-out and setting: for `C=CCNC(=O)C1CC1(c1ccc(C)cc1)c1ccc(C)cc1` (stereo unspecified) the value was 35.5 µM [falling, single point].

Turning to `Cc1ccc(NC(=O)Cc2nc(COC(=O)Cc3cccc(C(F)(F)F)c3)cs2)cc1`, the AC50 under setting [1] is 29.1 µM [rising, single point].

For the compound `Cc1ccc(NC(=O)C2=NNC(=O)CC2)cc1F`, the AC50 under setting [1] was 35.5 µM [falling, single point]. For the compound `CC(=O)[C@@]1(O)CC[C@H]2[C@@H]3C[C@H](C)C4=CC(=O)CC[C@]4(C)[C@H]3CC[C@@]21C`, under setting [1], the AC50 is 0.0058 µM [rising, full curve, poor fit].
